The numbers were not newly measured in patent publication US12648892B2, “Emergency eye wash” (Lebrun Labs LLC, priority 2024, dated 2026), which cites them from elsewhere.

The test system of this series is eye. Conditions: eye damage classification; cited from earlier work.
Note: key: GHS Category 1 (Chemicals that cause extreme and irreversible damage to the eye).

Regarding `CC(C)(C)c1ccc(O)cc1` [compound 19], the “in vivo GHS” value is 1.
